Laboratory results: patent US9896437B2, “Diarylhydantoin compounds” (The Regents of the University of California, priority 2007, dated 2018)
Like-named read-outs stand apart in the source and are kept apart here. For at least one compound, name, drawing or mass did not settle the structure.

Columns and labels:
[1] = system: androgen receptor (AR); assay type: cell-based; settings: hormone refractory; for agonistic activity on AR (AR response reporter): LN-AR system, absence of R1881
[2] = system: xenograft tumors established from AR-overexpressed LNCaP cells; assay: Hormone refractory xenograft tumors from AR-overexpressed LNCaP cells; assay type: in vivo, castrated male SCID mice; settings: orally once daily, compared with vehicle
[3] = system: LNCaP cells; assay: MTS assay of growth of parental, hormone sensitive LNCaP cells; settings: MTS of mitochondria activities

SMILES: CC(O)(CS(=O)(=O)c1ccc(F)cc1)C(=O)Nc1ccc(C#N)c(C(F)(F)F)c1 (centres unmarked) [Bicalutamide]
- agonistic activity on AR (AR response reporter) [1]: can activate AR
- agonistic activity on AR (AR response reporter) ([1]; listed as bicalutamide): displays agonistic activity
- inhibition of AR response reporter activity ([1]; LNCaP-AR cells): inhibited only by high concentrations
- inhibition of xenograft tumor growth [2]: does not inhibit growth
- inhibition of growth of hormone sensitive LNCaP cells [3]: mildly inhibits
